Data: article doi:10.1101/2021.12.14.472597
No constants are given. Whether binding was seen depends on the method and setting. Binding seen in cells or lysates may run through a third protein. Some results given as binding are weak or reduced against the parent protein; the word gives no strength. Tags and fused reporters may be left off the sequences shown.

Columns and labels:
Test in all cases: co-IP
[1] = target: T1, AtSK22, GFP-tagged (Arabidopsis thaliana) (UniProt Q39012)
T1 sequence: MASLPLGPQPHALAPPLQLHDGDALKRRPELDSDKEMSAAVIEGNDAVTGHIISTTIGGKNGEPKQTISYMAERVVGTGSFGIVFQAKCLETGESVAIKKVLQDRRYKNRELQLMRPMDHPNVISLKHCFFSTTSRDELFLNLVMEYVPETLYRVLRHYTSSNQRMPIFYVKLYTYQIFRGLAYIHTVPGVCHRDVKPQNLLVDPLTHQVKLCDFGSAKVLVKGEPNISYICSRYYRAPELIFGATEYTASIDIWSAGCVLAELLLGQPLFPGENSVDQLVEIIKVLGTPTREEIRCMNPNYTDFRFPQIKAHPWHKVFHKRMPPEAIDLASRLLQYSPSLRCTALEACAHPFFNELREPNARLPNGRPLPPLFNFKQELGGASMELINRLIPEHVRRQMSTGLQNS

[2] = target: T2, AtSK42, GFP-tagged (Arabidopsis thaliana) (UniProt Q9FVS6)
T2 sequence: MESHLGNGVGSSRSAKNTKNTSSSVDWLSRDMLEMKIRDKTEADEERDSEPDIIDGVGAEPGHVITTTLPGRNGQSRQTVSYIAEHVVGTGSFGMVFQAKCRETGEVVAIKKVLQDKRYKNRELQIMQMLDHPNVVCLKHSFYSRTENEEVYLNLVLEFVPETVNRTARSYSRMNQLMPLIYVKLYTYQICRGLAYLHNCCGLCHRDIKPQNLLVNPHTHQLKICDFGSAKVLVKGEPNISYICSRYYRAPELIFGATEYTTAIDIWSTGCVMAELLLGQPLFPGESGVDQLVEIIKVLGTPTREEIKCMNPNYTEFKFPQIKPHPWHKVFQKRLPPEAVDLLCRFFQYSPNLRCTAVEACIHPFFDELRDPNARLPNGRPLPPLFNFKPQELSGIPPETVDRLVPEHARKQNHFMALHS

[3] = target: T3, AtSK32, GFP-tagged (Arabidopsis thaliana) (UniProt Q96287)
T3 sequence: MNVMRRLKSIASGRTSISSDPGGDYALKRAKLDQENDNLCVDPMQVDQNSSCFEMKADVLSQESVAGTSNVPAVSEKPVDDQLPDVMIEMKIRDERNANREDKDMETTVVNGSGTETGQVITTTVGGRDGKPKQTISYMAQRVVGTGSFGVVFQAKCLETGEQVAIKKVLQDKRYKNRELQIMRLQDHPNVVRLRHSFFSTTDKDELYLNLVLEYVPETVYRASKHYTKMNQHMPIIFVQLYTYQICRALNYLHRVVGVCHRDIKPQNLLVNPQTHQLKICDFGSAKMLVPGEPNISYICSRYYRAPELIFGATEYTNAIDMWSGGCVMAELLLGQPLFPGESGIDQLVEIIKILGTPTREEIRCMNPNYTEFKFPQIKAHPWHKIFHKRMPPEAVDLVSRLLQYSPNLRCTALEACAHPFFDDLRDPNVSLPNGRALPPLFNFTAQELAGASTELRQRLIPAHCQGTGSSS

[4] = target: T4, AtSK12, GFP-tagged (Arabidopsis thaliana) (UniProt P43289)
T4 sequence: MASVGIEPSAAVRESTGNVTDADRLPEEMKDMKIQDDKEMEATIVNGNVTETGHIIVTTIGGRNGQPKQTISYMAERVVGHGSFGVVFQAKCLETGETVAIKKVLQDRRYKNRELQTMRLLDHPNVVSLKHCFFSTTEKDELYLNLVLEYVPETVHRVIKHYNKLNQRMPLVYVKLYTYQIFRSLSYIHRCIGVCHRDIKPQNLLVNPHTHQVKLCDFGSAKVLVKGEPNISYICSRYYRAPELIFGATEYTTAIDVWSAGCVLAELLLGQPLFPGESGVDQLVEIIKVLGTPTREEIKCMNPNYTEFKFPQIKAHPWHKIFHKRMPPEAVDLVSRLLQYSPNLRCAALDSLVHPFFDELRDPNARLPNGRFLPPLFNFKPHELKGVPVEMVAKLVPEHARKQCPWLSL

[5] = target: T5, BR-…2 (BIN2)/AtSK21, GFP-tagged (Arabidopsis thaliana) (UniProt Q39011)
T5 sequence: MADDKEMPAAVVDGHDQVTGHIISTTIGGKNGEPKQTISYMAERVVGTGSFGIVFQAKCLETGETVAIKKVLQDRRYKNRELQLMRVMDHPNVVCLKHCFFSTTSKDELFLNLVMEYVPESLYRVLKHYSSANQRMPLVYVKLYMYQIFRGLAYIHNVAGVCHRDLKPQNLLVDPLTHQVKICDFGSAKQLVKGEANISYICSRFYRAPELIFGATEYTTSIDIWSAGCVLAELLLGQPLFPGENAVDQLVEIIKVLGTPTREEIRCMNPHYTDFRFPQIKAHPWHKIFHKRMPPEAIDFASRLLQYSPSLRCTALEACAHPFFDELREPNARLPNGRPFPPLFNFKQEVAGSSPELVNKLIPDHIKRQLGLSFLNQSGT

[6] = target: T6, AtSK41, GFP-tagged (Arabidopsis thaliana) (UniProt Q39019)
T6 sequence: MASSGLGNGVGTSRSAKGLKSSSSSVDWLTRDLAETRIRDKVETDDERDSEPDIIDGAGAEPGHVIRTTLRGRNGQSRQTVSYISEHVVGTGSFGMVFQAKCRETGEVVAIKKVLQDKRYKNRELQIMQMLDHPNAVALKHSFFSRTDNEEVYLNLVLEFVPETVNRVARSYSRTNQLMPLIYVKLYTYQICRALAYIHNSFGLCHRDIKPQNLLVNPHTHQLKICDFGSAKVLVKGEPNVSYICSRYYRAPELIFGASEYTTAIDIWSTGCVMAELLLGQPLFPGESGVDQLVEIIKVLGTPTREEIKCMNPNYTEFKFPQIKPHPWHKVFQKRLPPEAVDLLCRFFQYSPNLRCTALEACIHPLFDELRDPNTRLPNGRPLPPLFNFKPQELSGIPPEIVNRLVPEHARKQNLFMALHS

[7] = target: T7, AtSK23, GFP-tagged (Arabidopsis thaliana) (UniProt Q39010)
T7 sequence: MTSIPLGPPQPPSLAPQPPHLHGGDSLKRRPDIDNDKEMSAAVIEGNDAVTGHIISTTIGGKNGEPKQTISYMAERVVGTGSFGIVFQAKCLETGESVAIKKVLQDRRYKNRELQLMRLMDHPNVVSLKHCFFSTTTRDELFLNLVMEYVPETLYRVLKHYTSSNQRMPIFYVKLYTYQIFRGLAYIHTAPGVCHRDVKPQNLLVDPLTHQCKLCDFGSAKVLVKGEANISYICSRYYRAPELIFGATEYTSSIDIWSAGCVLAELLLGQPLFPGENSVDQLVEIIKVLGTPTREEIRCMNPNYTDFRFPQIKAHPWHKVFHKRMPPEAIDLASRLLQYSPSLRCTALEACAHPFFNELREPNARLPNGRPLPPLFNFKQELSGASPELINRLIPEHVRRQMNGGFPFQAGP

[8] = target: T8, AtSK13, GFP-tagged (Arabidopsis thaliana) (UniProt Q8VZD5)
T8 sequence: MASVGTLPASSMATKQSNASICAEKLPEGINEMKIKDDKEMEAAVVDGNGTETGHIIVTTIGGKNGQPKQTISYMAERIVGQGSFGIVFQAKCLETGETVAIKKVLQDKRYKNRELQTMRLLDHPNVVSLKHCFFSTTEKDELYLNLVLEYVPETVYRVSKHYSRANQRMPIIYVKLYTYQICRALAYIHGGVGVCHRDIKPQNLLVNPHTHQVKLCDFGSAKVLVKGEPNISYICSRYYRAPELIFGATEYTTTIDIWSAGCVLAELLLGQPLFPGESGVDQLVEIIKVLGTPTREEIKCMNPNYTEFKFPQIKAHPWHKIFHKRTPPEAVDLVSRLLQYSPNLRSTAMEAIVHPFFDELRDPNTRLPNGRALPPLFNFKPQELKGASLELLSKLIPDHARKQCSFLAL

[9] = target: T9, AtSK11, GFP-tagged (Arabidopsis thaliana) (UniProt P43288)
T9 sequence: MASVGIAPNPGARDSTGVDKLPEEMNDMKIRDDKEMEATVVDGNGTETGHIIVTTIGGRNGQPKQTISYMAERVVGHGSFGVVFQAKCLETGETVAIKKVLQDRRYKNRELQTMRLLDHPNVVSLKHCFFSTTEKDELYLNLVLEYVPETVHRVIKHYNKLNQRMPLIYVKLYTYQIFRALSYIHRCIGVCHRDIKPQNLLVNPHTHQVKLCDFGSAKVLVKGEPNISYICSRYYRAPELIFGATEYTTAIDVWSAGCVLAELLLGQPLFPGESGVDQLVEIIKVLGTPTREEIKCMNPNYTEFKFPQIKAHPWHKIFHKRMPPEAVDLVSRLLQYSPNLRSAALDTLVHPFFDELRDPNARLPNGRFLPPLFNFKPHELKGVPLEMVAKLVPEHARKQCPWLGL

binding [1]: binds | binding [2]: binds | binding [3]: binds | binding [4]: binds | binding [5]: binds | binding [6]: binds | binding [7]: binds | binding [8]: binds | binding [9]: binds
B1: HOPW1-1-…2 (WIN2, AT4G31750), HA-tagged (protein, UniProt Q8RXV3 1-311)
chain: MGYLNSVLSSSSQVHSDDGPVSGGGLSQNGKFSYGYASSPGKRSSMEDFYETRIDGVEGEIVGLFGVFDGHGGARAAEYVKQNLFSNLIRHPKFISDTTAAIADAYNQTDSEFLKSENSQNRDAGSTASTAILVGDRLLVANVGDSRAVICRGGNAIAVSRDHKPDQSDERQRIEDAGGFVMWAGTWRVGGVLAVSRAFGDRLLKQYVVADPEIQEEKVDSSLEFLILASDGLWDVVSNEEAVGMIKAIEDPEEGAKRLMMEAYQRGSADNITCVVVRFFSDQAGGIGSSSTNIPIDHGIVPDRISGDSST
